# From the supplement of paper PMC12889115
# This is one part of the list. Values are raw readings; no control value is given beside them.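 In the initial screen, polymyxin B was used at a concentration that permeabilizes Salmonella's outer membrane but not its inner membrane. Maximum growth was set by DMSO wells with or without polymyxin B. Since plates varied, data were ranked per plate, and compounds giving the lowest OD600 advanced as hits.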
# System: Salmonella enterica serovar Typhimurium SL1344
# Assay: bacterial growth OD600 after 18 h with compound and polymyxin B; higher = more bacterial growth (less inhibition)
# Conditions: 50 µM, Mueller-Hinton broth
Structure (SMILES),bacterial growth OD600 (polymyxin B 1 µg/mL),bacterial growth OD600 (polymyxin B 0.75 µg/mL)
CC(C)N(Cc1nccn1C)C(=O)C1CCC(=O)N(CCCN2CCOCC2)C1 (centres undefined),0.971,
CC(C)Oc1cccc(C(=O)C2CCCN(Cc3cccn3-c3nccs3)C2)c1 (centres undefined),0.699,
O=C(c1ccc(Cl)cc1)N1CCOc2ccc(CN3CCN(c4ccccc4)CC3)cc2C1,,0.005
CN(Cc1ccncn1)C(=O)CC(c1cccc(O)c1)c1cccc(Cl)c1 (centres undefined),0.757,
COc1cc(N2CCCC(CCC(=O)N(C)CCc3ccccn3)C2)nc(OC)n1 (centres undefined),0.978,
COCCCC1CCN(Cc2c[nH]nc2-c2cccc3ccccc23)CC1,0.959,
Cc1cccc(CNC(=O)c2coc(COc3ccccc3)n2)c1,,0.005
CC(C)Oc1ccc(CN2CCC(CO)(Cc3ccccc3Cl)CC2)cc1CO,0.902,
Cn1c(C2CCC2)nc2cc(C(=O)NCc3cccc(-n4cccn4)c3)cc(NC(=O)C3CCCO3)c21 (centres undefined),,0.839
